# No dose or concentration is given here for some results.
# Test system: E. coli cells
# Experiment: FRAP of FtsZ architectures in live E. coli
# Format: cell-based
SMILES,"FRAP normalized fluorescence intensity, ave (time 0 s (before bleaching))","FRAP normalized fluorescence intensity, ave (time 4 s)","FRAP normalized fluorescence intensity, ave (time 7 s)","FRAP normalized fluorescence intensity, ave (time 10 s)","FRAP normalized fluorescence intensity, ave (time 13 s)","FRAP normalized fluorescence intensity, ave (time 16 s)","FRAP normalized fluorescence intensity, ave (time 19 s)","FRAP normalized fluorescence intensity, ave (time 22 s)","FRAP normalized fluorescence intensity, ave (time 25 s)","FRAP normalized fluorescence intensity, ave (time 28 s)","FRAP normalized fluorescence intensity, ave (time 31 s)","FRAP normalized fluorescence intensity, ave (time 41 s)","FRAP normalized fluorescence intensity, ave (time 51 s)","FRAP normalized fluorescence intensity, ave (time 61 s)"
"N[C@@H](Cc1ccc(O)c(Cl)c1)C(=O)O [ClY, 3-chloro-L-tyrosine]",1,0.00922,0.1022,0.2039,0.1824,0.3058,0.222,0.3336,0.3274,0.2994,0.3481,0.3157,0.3823,0.4263
"N[C@@H](Cc1cc(I)c(O)c(I)c1)C(=O)O [I2Y, 3,5-diiodo-L-tyrosine]",1,0,0.1002,0.1692,0.2385,0.2802,0.3436,0.3275,0.3842,0.3331,0.3166,0.3667,0.3665,0.4045
"N[C@@H](Cc1cc(Cl)c(O)c(Cl)c1)C(=O)O [Cl2Y, 3,5-dichloro-L-tyrosine]",1,0,0.02882,0.1152,0.1881,0.2426,0.297,0.2634,0.3509,0.2997,0.2987,0.4133,0.3766,0.3279
"N[C@@H](Cc1ccc(O)c(Br)c1)C(=O)O [BrY, 3-bromo-L-tyrosine]",1,0,0.08518,0.09731,0.1281,0.2506,0.3351,0.3159,0.3109,0.3745,0.3355,0.4046,0.4944,0.3299
"N[C@@H](Cc1ccc(O)c(I)c1)C(=O)O [IY, 3-iodo-L-tyrosine]",1,0,0.05475,0.06598,0.1061,0.1239,0.1464,0.1453,0.1447,0.1966,0.1813,0.3012,0.3242,0.314
"N[C@@H](Cc1cc(Br)c(O)c(Br)c1)C(=O)O [Br2Y, 3,5-dibromo-L-tyrosine]",1,0,0.06572,0.1143,0.1802,0.197,0.2826,0.3492,0.3242,0.3861,0.3679,0.4294,0.4355,0.4333

# Reference: paper PMC9385671 (Nature Communications, 2022)
